Experimental data as given in PMC5628917.
Results are given in words; binding and its absence hold for the method and conditions named. Binding seen in cells or lysates may run through a third protein. Here binding means that the protein was enriched with, or labelled near, the bait; the list need not be complete.

By UniProt entry, the sequences of proteins in these tests, tags left out. Where a name states a change or a piece, a line headed by the entry shows the natural chain unless it says otherwise.
UniProt Q05A36: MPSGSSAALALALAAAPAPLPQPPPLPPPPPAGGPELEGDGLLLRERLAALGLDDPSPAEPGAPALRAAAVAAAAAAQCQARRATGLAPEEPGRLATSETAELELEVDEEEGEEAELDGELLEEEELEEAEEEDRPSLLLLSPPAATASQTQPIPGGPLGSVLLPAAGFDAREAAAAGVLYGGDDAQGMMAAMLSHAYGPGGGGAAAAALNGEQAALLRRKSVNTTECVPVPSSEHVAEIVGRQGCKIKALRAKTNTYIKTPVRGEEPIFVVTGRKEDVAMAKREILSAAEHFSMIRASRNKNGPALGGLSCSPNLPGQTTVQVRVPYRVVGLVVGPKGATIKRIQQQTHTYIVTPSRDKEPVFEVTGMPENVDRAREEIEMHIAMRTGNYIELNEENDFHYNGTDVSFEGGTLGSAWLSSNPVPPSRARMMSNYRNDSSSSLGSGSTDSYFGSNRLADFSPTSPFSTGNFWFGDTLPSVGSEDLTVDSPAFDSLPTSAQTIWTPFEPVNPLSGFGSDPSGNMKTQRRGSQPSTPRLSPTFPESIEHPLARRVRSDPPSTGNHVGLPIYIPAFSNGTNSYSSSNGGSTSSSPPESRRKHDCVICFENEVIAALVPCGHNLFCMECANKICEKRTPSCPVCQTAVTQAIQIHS
UniProt P11940: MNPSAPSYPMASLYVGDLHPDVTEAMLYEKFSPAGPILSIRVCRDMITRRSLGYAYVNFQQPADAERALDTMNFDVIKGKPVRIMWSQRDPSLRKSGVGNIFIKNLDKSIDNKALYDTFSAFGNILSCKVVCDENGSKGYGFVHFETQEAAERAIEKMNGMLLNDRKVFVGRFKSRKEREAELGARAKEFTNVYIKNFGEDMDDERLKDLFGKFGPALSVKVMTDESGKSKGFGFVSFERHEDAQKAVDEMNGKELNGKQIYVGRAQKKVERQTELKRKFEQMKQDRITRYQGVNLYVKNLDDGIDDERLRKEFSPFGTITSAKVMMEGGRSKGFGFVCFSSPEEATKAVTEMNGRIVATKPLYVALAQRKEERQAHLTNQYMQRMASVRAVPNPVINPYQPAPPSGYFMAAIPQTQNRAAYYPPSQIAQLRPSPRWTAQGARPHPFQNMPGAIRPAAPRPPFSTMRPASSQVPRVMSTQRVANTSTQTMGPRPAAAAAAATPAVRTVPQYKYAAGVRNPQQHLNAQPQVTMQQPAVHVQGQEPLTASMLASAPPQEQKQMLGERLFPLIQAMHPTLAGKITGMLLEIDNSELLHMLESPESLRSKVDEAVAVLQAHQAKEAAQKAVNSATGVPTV

Biological target: Flag-tagged mouse MEX3C-2 (mouse) (UniProt Q05A36)
Test: affinity purification with mass spectrometry; MEX3C-2-Flag transiently expressed in HEK293; NP-40 buffer lysate, anti-Flag agarose beads, elution with 0.1 M glycine HCl pH 2.5; bands unique to the MEX3C-2-Flag preparation cut from a Coomassie gel, LC-MS/MS

## PABPC1 (from UniProt P11940 1-636)
  binding: binds
